The source of these data is PMC7018513.

In assay [1] the target is T1, BBS4 (Bos taurus (endogenous in bovine retina)) (UniProt Q1JQ97).
T1 sequence: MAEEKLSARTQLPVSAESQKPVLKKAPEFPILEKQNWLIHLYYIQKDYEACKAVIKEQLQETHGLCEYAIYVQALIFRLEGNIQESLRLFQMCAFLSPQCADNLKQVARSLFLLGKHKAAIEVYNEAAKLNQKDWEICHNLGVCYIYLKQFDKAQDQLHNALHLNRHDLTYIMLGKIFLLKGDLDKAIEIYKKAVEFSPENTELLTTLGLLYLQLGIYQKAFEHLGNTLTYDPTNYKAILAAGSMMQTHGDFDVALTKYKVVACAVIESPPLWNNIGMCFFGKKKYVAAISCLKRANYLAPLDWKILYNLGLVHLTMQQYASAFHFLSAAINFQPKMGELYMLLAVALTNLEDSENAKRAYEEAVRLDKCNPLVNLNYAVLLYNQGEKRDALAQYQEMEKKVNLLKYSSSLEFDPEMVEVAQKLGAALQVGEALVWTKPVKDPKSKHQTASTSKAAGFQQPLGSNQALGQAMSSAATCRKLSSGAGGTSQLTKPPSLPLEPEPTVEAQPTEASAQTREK
Briefly: cryo-EM structure; BBSome-only class (no ARL6), 3.1 Å; the sample was 0.7 mg/ml BBSome mixed with 2x molar excess of ARL6 and 1 mM GTP; classes separated by focused classification; both purified.

For assay [2], the target named is T2, BBS1 (Bos taurus (endogenous in bovine retina)).
T2 sequence: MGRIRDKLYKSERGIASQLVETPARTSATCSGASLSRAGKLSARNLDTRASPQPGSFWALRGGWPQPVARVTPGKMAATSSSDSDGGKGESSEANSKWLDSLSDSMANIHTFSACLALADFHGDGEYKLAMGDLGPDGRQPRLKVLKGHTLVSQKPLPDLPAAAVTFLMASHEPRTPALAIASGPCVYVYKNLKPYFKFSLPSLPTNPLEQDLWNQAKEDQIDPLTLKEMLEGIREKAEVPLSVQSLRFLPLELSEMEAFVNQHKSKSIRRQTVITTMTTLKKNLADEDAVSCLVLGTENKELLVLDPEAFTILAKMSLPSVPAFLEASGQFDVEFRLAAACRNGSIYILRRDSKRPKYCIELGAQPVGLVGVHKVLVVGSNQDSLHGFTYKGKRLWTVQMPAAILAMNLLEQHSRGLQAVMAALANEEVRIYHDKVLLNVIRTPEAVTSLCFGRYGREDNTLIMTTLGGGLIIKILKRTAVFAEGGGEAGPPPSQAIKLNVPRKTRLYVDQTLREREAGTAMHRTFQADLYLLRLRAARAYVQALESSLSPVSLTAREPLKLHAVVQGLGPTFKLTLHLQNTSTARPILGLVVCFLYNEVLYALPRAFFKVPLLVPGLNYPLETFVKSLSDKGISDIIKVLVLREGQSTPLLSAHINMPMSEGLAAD
Briefly: cryo-EM structure; BBSome:ARL6:GTP class, 3.5 Å; 0.7 mg/ml BBSome (~18 μM) mixed with 2x molar excess of ARL6 (36 μM) and 1 mM GTP, 1 hr at 4°C; both purified.

These are yes or no findings as the source states them, for the method shown. Some results given as binding are weak or reduced against the parent protein; the word gives no strength. For part of these data: Where a sequence is shown, tags or fusion partners need not be part of it.

B1: BBS1 (protein, UniProt A0AAA9RX20 1-668)
chain: T2 sequence
For the molecule B1, the binding result in assay [1] was “binds”.

B2: Flag-∆16NARL6(Q73L) (enzyme, UniProt Q0IIM2 17-186)
chain: EVHVLCLGLDNSGKTTIINKLKPSNAQSQDIVPTIGFSIQKFKSSSLSFTVFDMSGLGRYRNLWEHYYKEGQAIIFVIDSSDKLRMVVAKEELRTLLNHPDIKHRRIPILFFANKMDLRDALTSVKVSQLLCLEDIKDKPWHICASDAIKGEGLQEGVDWLQDQIQSVKT
For the molecule B2, the binding result in assay [2] was “binds”.

B3: BBS18 (protein, UniProt G3N2W1 1-69)
chain: MAETKSMFREVLPKQGQLYVEDITTMVLCKPKLLPLKSLTLEKLEKMQQAAQDTIHQQEMTEKEQKITH
Consider B3, for which the binding entry in assay [1] is reported as “binds”.
